# Reference: paper PMC5668434, “Modulation of telomere protection by the PI3K/AKT pathway” (Nature Communications, 2017)
# By UniProt entry, the sequences of proteins in these tests, tags left out.
# UniProt P70371, whole entry S344A: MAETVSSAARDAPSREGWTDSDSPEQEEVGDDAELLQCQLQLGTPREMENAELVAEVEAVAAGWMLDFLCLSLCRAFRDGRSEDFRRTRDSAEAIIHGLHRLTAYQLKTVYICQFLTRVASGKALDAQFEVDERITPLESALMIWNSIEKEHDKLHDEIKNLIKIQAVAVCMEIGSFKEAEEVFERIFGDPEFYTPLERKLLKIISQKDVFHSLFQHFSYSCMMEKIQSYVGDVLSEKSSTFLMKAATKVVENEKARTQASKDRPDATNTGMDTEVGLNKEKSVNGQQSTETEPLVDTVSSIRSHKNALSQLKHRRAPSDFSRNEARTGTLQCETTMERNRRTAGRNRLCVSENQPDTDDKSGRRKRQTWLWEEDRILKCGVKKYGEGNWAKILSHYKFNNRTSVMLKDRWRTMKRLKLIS
# UniProt P70371, whole entry T248A: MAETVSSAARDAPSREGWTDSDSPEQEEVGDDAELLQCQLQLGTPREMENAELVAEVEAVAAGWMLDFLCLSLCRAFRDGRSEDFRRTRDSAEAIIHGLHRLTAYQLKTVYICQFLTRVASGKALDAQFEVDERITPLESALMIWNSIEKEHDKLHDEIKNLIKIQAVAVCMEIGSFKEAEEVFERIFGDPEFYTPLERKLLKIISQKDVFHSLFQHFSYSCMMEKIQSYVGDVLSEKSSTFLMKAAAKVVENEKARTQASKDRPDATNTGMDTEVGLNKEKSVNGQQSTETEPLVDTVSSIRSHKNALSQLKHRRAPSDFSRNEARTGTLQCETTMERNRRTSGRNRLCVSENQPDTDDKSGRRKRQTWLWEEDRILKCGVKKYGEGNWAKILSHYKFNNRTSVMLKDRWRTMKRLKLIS
# UniProt P70371, whole entry T330A: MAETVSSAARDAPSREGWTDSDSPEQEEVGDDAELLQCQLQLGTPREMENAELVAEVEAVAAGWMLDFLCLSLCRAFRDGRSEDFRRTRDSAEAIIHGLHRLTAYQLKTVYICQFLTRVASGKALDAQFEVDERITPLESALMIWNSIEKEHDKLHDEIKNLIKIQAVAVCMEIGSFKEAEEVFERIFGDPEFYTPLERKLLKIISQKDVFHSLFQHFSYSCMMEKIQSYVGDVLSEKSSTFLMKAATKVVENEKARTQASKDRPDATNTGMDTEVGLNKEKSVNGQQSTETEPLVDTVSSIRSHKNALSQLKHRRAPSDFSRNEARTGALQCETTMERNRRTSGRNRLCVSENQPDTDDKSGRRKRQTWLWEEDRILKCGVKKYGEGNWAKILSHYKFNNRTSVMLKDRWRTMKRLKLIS
# Construct, isoform or probe ends are uncertain for at least one entry. For part of these data: The comparison behind a weaker result is the experiment's own reference, which may not be listed here.
# Columns and labels:
# Experiment in all cases: EMSA
# Conditions in all cases: 1 ug protein; 20 mM HEPES-KOH pH 7.9, 150 mM KCl, 5% glycerol, 4% Ficoll, 1 mM EDTA, 0.1 mM MgCl2, 0.5 mM DTT, 20 ug BSA, 1 ug poly(dI-dC), 30 ul, 20 min, room temperature; recombinant protein; protein details: N-terminal 6xHis and GST; label: 32P 5'-end label (T4 PNK)
# GST-TRF1 S344A (mouse) = GST-TRF1 S344A (mouse) (UniProt P70371)
# GST-TRF1 T248A (mouse) = GST-TRF1 T248A (mouse) (UniProt P70371)
# GST-TRF1 T330A (mouse) = GST-TRF1 T330A (mouse) (UniProt P70371)
sequence,measurement,setting,value
GGGTTAGGGTTAGGGTTAGGGTTAGGGTTAGGGTTAGGGTTAGGGCCCCTC (double strand) [ds(TTAGGG)7 telomeric probe],binding result,GST-TRF1 S344A (mouse),binds more weakly
same,binding result,GST-TRF1 T248A (mouse),binds
same,binding result,GST-TRF1 T330A (mouse),binds more weakly
